# Measurements from article PMC5830979, “Preclinical In Vitro and In Vivo Evaluation of [^18F]FE@SUPPY for Cancer PET Imaging: Limitations of a Xenograft Model for Colorectal Cancer” (Contrast Media & Molecular Imaging, 2018).
# System: HT-29 xenografts
# Experiment: µPET imaging of HT-29 / CHO-K1 xenograft-bearing CB17-SCID mice
# Assay type: in vivo
# Settings: blocking agent 2 mg/kg BW retroorbitally 2 min prior to tracer, n = 3 per group
# Experimental: After 10 to 14 days upon arrival, CB17-SCID mice were injected subcutaneously with 2 × 10^6 HT-29 cells into one flank and 2 × 10^6 CHO-K1 cells in the opposite flank (n = 9). Body weight and tumor development were monitored every second day by caliper measurement. The respective tumor volume was calculated according to the following equation: tumor volume (mm^3) = d^2 × D/2 (where d is the shortest diameter and D the longest diameter). Animals were subjected to μPET imaging 10 days after inoculation, when tumors reached a volume of at least 300 mm^3. Tumor volume never exceeded 1 cm^3.
# Xenograft-bearing CB17-SCID mice were anesthetized using isoflurane (2.5%) mixed with oxygen (1.5 L/min) to avoid movement during the imaging. Blocking agents (2 mg/kg BW FE@SUPPY or MRS1523) or the respective vehicle control (Tween-20/EtOH/0.9% physiological saline 1/9/90) was administered retroorbitally 2 min prior to the radiotracer administration (n = 3 per group). Subsequently, the animals received another retroorbital injection of 17.42 ± 4.5 MBq [^18F]FE@SUPPY into the venous plexus of the opposite eye. […] Vital parameters (respiration, body temperature) were continuously monitored using a dedicated monitoring unit (bioVet; m2m imaging, Cleveland, OH, USA) to ensure the depth of anesthesia and wellbeing of the animals.
row,SMILES,blocking of tumor uptake of [18F]FE@SUPPY
1,"CCCOC(=O)c1c(-c2ccccc2)nc(CC)c(C(=O)SCC)c1CCC [MRS1523, reference compound]",provided the same outcome
2,"CCSC(=O)c1c(CC)nc(-c2ccccc2)c(C(=O)OCC[18F])c1CC [[^18F]FE@SUPPY, 5-(2-[18F]fluoroethyl) 2,4-diethyl-3-(ethylsulfanylcarbonyl)-6-phenylpyridine-5-carboxylate]",significant blocking could not be achieved
